Not every detail of the peptide structures is certain; ends, links or a residue may be inferred. Starred links: 1 amine or outer side, 2 acyl side, 3 side chain; linkers in the order of their positions; H or OH if unused. Non-standard residues stand in square brackets, D forms with d. Residues, ends and D or L forms follow the SMILES beside them. Groups on a side chain read outwards from the residue. *: point of attachment. DAMPA = CN(Cc1cnc2nc(N)nc(N)c2n1)c1ccc(C(=O)*)cc1; Hexanoyl(6-maleimido) = O=C1C=CC(=O)N1CCCCCC(=O)*; γGlu = O=C(O)[C@H](CCC(=O)[*:2])N[*:1]
Experiments:
[1] = system: OVCAR-3 (ovarian carcinoma growing subcutaneously); assay: In vivo tumor-inhibiting properties, OVCAR-3 model; parameters: species or system nude mice NMRI; conditions: for T/C [%] maximum: i.v. day 7, 14, 21, 28, dosage [mg/Kg] MTX equivalents: MTX 4 × 100, AW054-EMC 4 × 15, C175 3 × 15
Method: Animals: nude mice NMRI; tumor model: OVCAR-3 (ovarian carcinoma growing subcutaneously) Therapy: day 7, 14, 21, 28; i. v. (10 mM sodium phosphate/5% D-glucose buffer pH 6.4); dosages relate to methotrexate equivalents.

[2] = system: collagen-induced arthritis model; assay: In vivo antirheumatic properties, collagen-induced arthritis model, therapy day 30-48; parameters: species or system mice (m, DBA/1); conditions: i.v. day 30, 34, 37, 41, 44, 48; dosage [mg/Kg] MTX equivalents: MTX 6 × 35, AW054-EMC 6 × 20
Method: Animals: mice (m, DBA/1; model: collagen-induced arthritis model) Therapy: day 30, 34, 37, 41, 44, 48; i. v. (10 mM sodium phosphate/5% D-glucose buffer pH 6.4); dosages relate to methotrexate equivalents.

| Structure (SMILES) | T/C [%] maximum [1] [%] | RA score Tag 55 [2] | in-vivo effectiveness compared to free methotrexate ([1]; OVCAR-3 model, FIG. 9) |
| --- | --- | --- | --- |
| C[C@@H](NC(=O)CCCCCN1C(=O)C=CC1=O)C(=O)N[C@@H](Cc1ccccc1)C(=O)N[C@@H](CCCCN)C(=O)N[C@@H](CCCCNC(=O)CC[C@H](NC(=O)c1ccc(N(C)Cc2cnc3nc(N)nc(N)c3n2)cc1)C(=O)O)C(=O)O [AW054-EMC, EMC-D-Ala-Phe-Lys-Lys(γ-MTX)-OH] ({Hexanoyl(6-maleimido)}-[dA]FKK([γGlu-DAMPA])-OH) | 29 | 5.00 | – |
| CSCC[C@H](NC(=O)[C@H](C)NC(=O)[C@H](CCCNC(=N)N)NC(=O)[C@H](CCCNC(=N)N)NC(=O)CCCCCN1C(=O)C=CC1=O)C(=O)N[C@@H](CCCCNC(=O)CC[C@H](NC(=O)c1ccc(N(C)Cc2cnc3nc(N)nc(N)c3n2)cc1)C(=O)O)C(=O)O [C175, EMC-Arg-Arg-Ala-Met-Lys(γ-MTX)-OH] ({Hexanoyl(6-maleimido)}-RRAMK([γGlu-DAMPA])-OH) | 40 | – | increased |

From patent US20100041615A1 (Medac Gesellschaft Fur Klinische Spezialpraparate MBH, priority 2006, published 2010)
